Screening data, single-dose tests

The values are deposited in ChEMBL (CHEMBL3988442, “University of Dundee, Small-Polar-MMV Screening Library” (2021)).

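Phenotypic screen: M. tuberculosis growth, cholesterol and DPPC medium, 4 days; the read-out is not stated. Tested at 50 µM. Higher reads as more growth inhibition (inferred: compounds with an IC50 in retests scored well above the rest). Size under these conditions: about 69,000 compounds, about 370 of them at 50% or above in at least one test.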

Each number is a percent effect as filed.
The controls that fix the scale are not given in the record; negative values are as filed.
This is an unselected part of the compounds tested.
Two or more numbers in one place are separate tests of the same structure; such repeats can differ widely.

SMILES	Percent Effect
COc1ccc(NC(C)C(=O)N2CCN(Cc3ccccc3)CC2)cn1 (stereo not drawn)	-12.95%
Cc1ccc(S(=O)(=O)c2ncccc2CN2CCOCC2)cc1	-0.9348%
COc1ccc(OCCN2CCN(Cc3nccn3C)CC2)cc1	-15.22%
CCc1ncncc1C(=O)Nc1ccc2ccn(CCN(C)C)c2c1	1.482%
CN(Cc1cccc(O)c1)CC1CCCN(CCc2ccc(Cl)cc2)C1 (stereo not drawn)	15.2%
CNC(=O)c1ccc(C2CN(CC(=O)N(C)C)CCO2)nc1 (stereo not drawn)	14.46%
CC(C)N1CCCC(CNC(=O)CN(C)S(=O)(=O)c2ccccc2)C1 (stereo not drawn)	-21.49%
CC(C)c1cc(C(F)(F)F)n2nc(C3CCN(S(C)(=O)=O)C3)cc2n1 (stereo not drawn)	-4.791% & -3.356%
CCN1CC(COc2ccc(OC)cc2)Oc2ccncc2S1(=O)=O (stereo not drawn)	-22.82%
O=C(NCCC(=O)N1CCCc2ccccc21)c1cc(F)cc(F)c1	1.767%
CCC(c1ccccc1)c1nn2c(CN(CC)CC)nnc2s1 (stereo not drawn)	-16.51%
Cl.NC(=O)N1CC2(CCNCC2)c2cc(Cl)ccc21	2.409%
CN(C)CCN(Cc1cccc(F)c1)C(=O)c1ccc2nccn2c1	0.8168%
O=C(O)C(F)(F)F.[H][C@@]12CCCO[C@]1([H])[C@H](NS(C)(=O)=O)CN2C(=O)c1cccnc1	-4.051%
CCN(Cc1nonc1C)C(=O)c1cc(C(F)(F)F)nn1C	9.779%
COCCNC(=O)N1CCCCC1CNC(=O)Nc1ccccc1 (stereo not drawn)	1.989%
CCNC(=O)COc1ccc(C(=O)NC(C)CCc2ccco2)cc1 (stereo not drawn)	-27.71%
CC(C)C(CNC(=O)Nc1cn[nH]c1)N1CCOCC1 (stereo not drawn)	15%
CC(C)CN(C(=O)Nc1cccnc1)C1CC1	-2.147% & -9.442%
Cc1ccc(C)c(-c2[nH]c3ccccc3c2C(=O)O)c1	-5.078%
Cn1cnc(S(=O)(=O)N2CCCc3c(F)cc(F)cc32)c1Cl	-18.91% & 5.478%
O=C(O)C(F)(F)F.[H][C@@]12CCN(Cc3cc(C)on3)C[C@]1([H])OCCN(c1ccsc1)C2=O	3.325% & -11.79%
O=C(CN1CCNC1=O)NCc1ccc2sccc2c1	6.089%
CCc1nc(CC(=O)N2CCCC2c2c(C)nn(C)c2OC)cs1 (stereo not drawn)	12.42%
CSCCc1c(-c2ccccc2)ncn1CCNc1cccnc1	-9.473%
COC(=O)NCCC(=O)NC(C)Cc1cccc(Br)c1 (stereo not drawn)	14.87%
CC(C)n1cnnc1CN(C)CC1CCOC1 (stereo not drawn)	-19.27%
Cc1cc(CC(=O)NCC(O)c2ccc(OC(F)F)cc2)n[nH]1 (stereo not drawn)	-6.5%
CCOc1ccccc1CC(=O)N1C[C@@H](C(=O)O)[C@H](C2CC2)C1	-7.502%
O=C(NCCC1=CCCCC1)c1cc(-c2ccc(O)cc2)n[nH]1	-12.29%
CNS(=O)(=O)c1cccc(CNC(=O)c2cnn(C)c2C)c1	-3.015% & -29.23%
[H][C@@]12CCN(C(=O)c3c(C)noc3C)C[C@]1(c1nc(C)no1)CCO2	8.977%
CNC(=O)[C@@H](C1CCCCC1)N1CCC[C@H]1C(=O)N(C)CCN(C)C.Cl.Cl	-19.18%
O=C1CCCC2=C1C(c1cc(Cl)ccc1F)Nc1nonc1N2 (stereo not drawn)	-12.38%
Cc1ccccc1CCNC(=O)C1CC(=O)N(CC(F)(F)F)C1 (stereo not drawn)	-45.91%
Cc1ccc(C(N)c2cccs2)cc1 (stereo not drawn)	-27.63%
CCCSc1ncc(-c2nccn2CCC(N)=O)cn1	-15.71%
Cc1nc(CN(C)C2CCN(CCCc3ccccc3)C2)no1 (stereo not drawn)	5.084%
Cc1nocc1C(=O)N1CCOC2(COCCN(CC3CC3)C2)C1 (stereo not drawn)	12.52%
CN(Cc1cc(C2CC2)on1)C(=O)CN1C(=O)OC(C)(C)C1=O	-5.062% & -7.162%
CSc1ccc(CNCCS(=O)(=O)N2CCOCC2)cc1	0.0743% & -1.679%
CCCn1ncc(C2CC(=O)NCc3nc4cc(C)ccn4c32)c1C (stereo not drawn)	-9.325%
O=C(O)C(F)(F)F.O=C(O)C(F)(F)F.[H][C@@]12CN(Cc3ccsc3)C[C@]1([H])OCCN2c1ncccn1	-20.7%
CN(CC(=O)NC1CC1)S(=O)(=O)c1ccc(F)cc1Cl	0.3282% & -28.01%
O=C(N1CCC(Oc2ccncc2)C1)C1(c2cccc(F)c2)CC1 (stereo not drawn)	-2.288%
O=C(O)C(F)(F)F.[H][C@@]12CCC(=O)N(c3cnn(C)c3)[C@]1([H])CCN2Cc1nccs1	1.828%
Cc1csc(CNC(=O)NCC2(c3ccc4c(c3)OCO4)CC2)n1	2.803%
CCSCC(C)NCc1nc(-c2cccnc2)no1 (stereo not drawn)	-15.33%
CC(Nc1nc(-c2ccccc2)nc2c1CCNCC2)c1nccs1 (stereo not drawn)	13.03%
O=C1N(C2CCOCC2)CCCC12CCN(c1ncccc1Cl)C2 (stereo not drawn)	17.28%
CC(CCc1ccccc1)N1CCC(C(=O)NCc2ccccc2)CC1 (stereo not drawn)	-13.17%
CCc1nc(C2CCCN(C(=O)c3cccc(C(N)=O)c3)C2)no1 (stereo not drawn)	10.28%
CN(C)c1cccc(C2CCN(C3COCC3O)CC2)n1 (stereo not drawn)	11.18%
Cc1ccccc1-c1noc(-c2ccc(NCC3COCCO3)nc2)n1 (stereo not drawn)	7.148%
CCCN1CCC(CC(=O)N(C)C(C)c2cncs2)CC1 (stereo not drawn)	-15.56%
CCc1ccccc1OCCNCCc1c[nH]cn1	-7.912%
C[C@@H]1CN(C(=O)[C@H]2CCCO2)C[C@]12CCN(c1ccsc1)C2=O	5.757% & 13.66%
CCNC(=O)CN1CCSC2(CCCCC2)C1	22.17%
O=c1[nH]c2nc(NCC3CCCO3)ncc2c(=O)n1-c1cccc(F)c1 (stereo not drawn)	13.88%
CCc1nnc(C(C)N2CCN(CCC(C)(C)C)CC2)o1 (stereo not drawn)	14.05%
O=c1cc(Cn2ccnc2)nc2n1CCCN(Cc1ccc(F)cc1)C2	-19.18%
CCn1ccnc1CN1CCN(Cc2cc(C#N)ccc2F)CC1	-8.975%
[H][C@@]12CN(Cc3nccs3)C[C@H](C(=O)N3CCCC3)[C@]1([H])CCO2	-37.48% & -29.33%
CN(C)C(=O)C1(C)CN(Cc2cn(C)c3ccccc23)CCO1 (stereo not drawn)	-4.573%
CCN(CC)Cc1cc(C(=O)N2CCCC(O)(CO)C2)c(C)o1 (stereo not drawn)	-0.6626%
O=C(c1ccco1)N1CCC(n2nc(-c3ccco3)ccc2=O)CC1	0.4032%
CC(C)n1nccc1C(=O)N1CCC(c2nnsc2S(C)(=O)=O)CC1	-2.622% & -4.014%
CCN1CCC2(COCc3c(C)nc(N(C)C)nc32)C1 (stereo not drawn)	6.639%
N[C@@H]1CC[C@H](C(=O)NCc2ccc3nonc3c2)C1	18.3%
Cc1ccc(N2CCN(C(=O)COc3nccc(C)n3)CC2)nn1	-15.71%
Cc1n[nH]c(C)c1NC(=O)CN1CCCC1Cn1cncn1 (stereo not drawn)	-2.433%
COCc1ncc(CN2C[C@@H](C(=O)O)[C@H](C(C)C)C2)cn1	-20.23%
O=C(Nc1cccc(CN2CCOC2=O)c1)N1CCCCCC1	-17.61%
CC(C)CC(NCc1cscn1)c1ccccn1 (stereo not drawn)	-0.02884%
Cc1cc(C)n(CC(C)NC(=O)NCc2c(C)cc(C)[nH]c2=O)n1 (stereo not drawn)	-10.5%
COC1CCN(C(=O)Cc2csc(-c3ncccn3)n2)CC1	-1.674%
COc1ccc(C2(c3nc(-c4cccnc4)no3)CCOCC2)cc1	-16.89%
CC(=O)NCCC(=O)NCc1ccc(Br)cc1Cl	-25.41%
Cc1nc(NC(=O)N2CCCC(C(F)(F)F)C2)nn1C (stereo not drawn)	21.2%
Cc1cnn(C2CCCN(C(=O)Cc3n[nH]c4ccccc34)C2)c1 (stereo not drawn)	-0.2657%
Fc1cnc(N2CC3(CCN(Cc4ccsc4)C3)C2)nc1.O=C(O)C(F)(F)F	2.896%
CC(=O)N1CCN(C(=O)CN2CCc3c(ncn3C3CC3)C2)CC1	-10.26%
O=C(NC1CCC1)c1n[nH]c2c1CNCC2	4.134%
Cc1nn(C)c(Cl)c1C1CCCN1c1ncnc2[nH]ccc12 (stereo not drawn)	-25.9%
Cc1ccc(NC2CCN(C(=O)c3cccn3C)CC2)nn1	-13.8%
CN(CCO)C[C@@H]1CN(C(=O)c2cccc(OC(F)F)c2)C[C@@H]1CO	-7.73%
CN(CCc1ccccn1)C(=O)Cn1cc(-c2ccccc2)nn1	-3.744%
O=C(NCCOC1CCCCC1)c1ccc(-c2ccco2)[nH]c1=O	-20.89%
Cc1nc(CN2CCCN(CCOc3cccc(C#N)c3)CC2)no1	-26.07%

For reference, 11 entries once more:

SMILES	Percent Effect
[H][C@@]12CN(Cc3nccs3)C[C@H](C(=O)N3CCCC3)[C@]1([H])CCO2	-37.48% & -29.33%
CCC(c1ccccc1)c1nn2c(CN(CC)CC)nnc2s1 (stereo not drawn)	-16.51%
CC(C)C(CNC(=O)Nc1cn[nH]c1)N1CCOCC1 (stereo not drawn)	15%
O=C(Nc1cccc(CN2CCOC2=O)c1)N1CCCCCC1	-17.61%
CCc1nc(C2CCCN(C(=O)c3cccc(C(N)=O)c3)C2)no1 (stereo not drawn)	10.28%
Cc1cc(CC(=O)NCC(O)c2ccc(OC(F)F)cc2)n[nH]1 (stereo not drawn)	-6.5%
CCOc1ccccc1CC(=O)N1C[C@@H](C(=O)O)[C@H](C2CC2)C1	-7.502%
C[C@@H]1CN(C(=O)[C@H]2CCCO2)C[C@]12CCN(c1ccsc1)C2=O	5.757% & 13.66%
O=C1CCCC2=C1C(c1cc(Cl)ccc1F)Nc1nonc1N2 (stereo not drawn)	-12.38%
Cc1ccc(N2CCN(C(=O)COc3nccc(C)n3)CC2)nn1	-15.71%
CC(=O)NCCC(=O)NCc1ccc(Br)cc1Cl	-25.41%